In experiment [1] the target is vesicular monoamine transporter-2 (VMAT2) (rat (endogenous in Sprague Dawley rat striatum)) (UniProt Q01827). In words: co-IP; Dynabeads with anti-parkin (Prk8) or anti-VMAT2 (NBP1-69750H) antibody, incubated 12 h at 4 °C with rat striatal synaptosomal fractions (100-200 µg), washed three times with PBS 0.02% Tween-20; blot for CDCrel-1; rats untreated, or saline or binge METH (4 x 8 mg/kg) and killed 1 h later.

Protein sequences, listed by entry. Tags and fused reporters are not part of them.
UniProt Q01827: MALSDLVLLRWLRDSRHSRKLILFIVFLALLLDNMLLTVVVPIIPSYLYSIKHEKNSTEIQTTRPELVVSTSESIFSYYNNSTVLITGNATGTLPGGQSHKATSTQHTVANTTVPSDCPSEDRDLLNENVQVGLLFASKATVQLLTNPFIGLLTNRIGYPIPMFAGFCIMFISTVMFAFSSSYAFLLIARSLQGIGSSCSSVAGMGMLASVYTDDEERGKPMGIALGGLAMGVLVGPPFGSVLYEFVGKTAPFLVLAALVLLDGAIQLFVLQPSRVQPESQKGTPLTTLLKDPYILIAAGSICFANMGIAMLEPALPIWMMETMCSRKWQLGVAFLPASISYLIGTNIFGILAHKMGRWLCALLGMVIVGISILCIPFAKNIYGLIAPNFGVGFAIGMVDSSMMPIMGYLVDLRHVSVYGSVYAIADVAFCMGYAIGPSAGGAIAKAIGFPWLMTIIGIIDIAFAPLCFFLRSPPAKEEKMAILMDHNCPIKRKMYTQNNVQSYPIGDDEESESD
UniProt Q9JK66: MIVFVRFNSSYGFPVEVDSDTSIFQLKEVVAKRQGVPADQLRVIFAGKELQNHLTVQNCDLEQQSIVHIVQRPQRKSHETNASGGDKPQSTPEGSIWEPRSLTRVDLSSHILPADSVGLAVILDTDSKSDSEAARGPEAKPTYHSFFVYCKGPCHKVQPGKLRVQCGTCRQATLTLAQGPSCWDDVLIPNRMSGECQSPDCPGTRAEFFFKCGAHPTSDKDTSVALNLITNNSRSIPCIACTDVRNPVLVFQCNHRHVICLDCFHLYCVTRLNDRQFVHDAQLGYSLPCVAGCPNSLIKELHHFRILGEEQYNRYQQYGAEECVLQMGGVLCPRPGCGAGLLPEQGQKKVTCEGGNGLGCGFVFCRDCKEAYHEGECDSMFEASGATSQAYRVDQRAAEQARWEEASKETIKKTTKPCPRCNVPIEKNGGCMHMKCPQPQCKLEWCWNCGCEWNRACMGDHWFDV

The target in experiment [2] is parkin (rat (endogenous in Sprague Dawley rat striatum)) (UniProt Q9JK66). Described as above.

These are yes or no findings as the source states them, for the method shown. Binding seen in cells or lysates may run through a third protein. Some results given as binding are weak or reduced against the parent protein; the word gives no strength.

B1: cell division cycle related-1 (CDCrel-1) (protein, UniProt Q9JJM9 1-369)
chain: MSTGLRYKSKLATPEDKQDIDKQYVGFATLPNQVHRKSVKKGFDFTLMVAGESGLGKSTLVHSLFLTDLYKDRKLLSAEERINQTVEILKHTVDIEEKGVKLKLTIVDTPGFGDAVNNFECWKPITDYVDQQFEQYFRDESGLNRKNIQDNRVHCCLYFISPFGHGLRPVDVGFMKALHEKVNIVPLIAKADCLVPSEIRKLKDRIREEIDKFGIHVYQFPECDSDEDEDFKQQDRELKESAPFAVIGSNTVVEAKGQRVRGRLYPWGIVEVENQAHCDFVKLRNMLIRTHMHDLKDVTCDVHYENYRAHCIQQMTSKLTQDSRMESPIPILPLPTPDSETEKLIRMKDEELRRMQEMLQKMKQRMQDQ
As for B1, the binding result in experiment [1] is given as “binds”; in experiment [2] it was “binds weakly”.

These data come from publication PMC11642102.
